Chains of the proteins cited; added tags and fusions are not shown.
UniProt Q9BYI3: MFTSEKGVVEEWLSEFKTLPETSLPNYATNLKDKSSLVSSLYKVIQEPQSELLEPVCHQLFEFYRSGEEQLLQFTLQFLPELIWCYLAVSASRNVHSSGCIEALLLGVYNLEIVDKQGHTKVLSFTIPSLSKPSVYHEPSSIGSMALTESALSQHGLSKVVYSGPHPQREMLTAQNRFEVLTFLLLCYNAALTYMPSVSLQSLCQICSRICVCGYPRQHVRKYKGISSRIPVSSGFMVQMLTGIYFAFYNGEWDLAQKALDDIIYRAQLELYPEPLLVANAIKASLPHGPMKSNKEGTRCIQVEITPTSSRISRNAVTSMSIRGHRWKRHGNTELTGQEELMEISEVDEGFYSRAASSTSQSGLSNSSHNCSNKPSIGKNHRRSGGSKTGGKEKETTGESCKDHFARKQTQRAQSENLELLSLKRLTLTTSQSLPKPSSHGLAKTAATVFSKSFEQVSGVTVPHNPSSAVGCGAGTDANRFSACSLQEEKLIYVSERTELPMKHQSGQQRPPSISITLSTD
UniProt Q86W92: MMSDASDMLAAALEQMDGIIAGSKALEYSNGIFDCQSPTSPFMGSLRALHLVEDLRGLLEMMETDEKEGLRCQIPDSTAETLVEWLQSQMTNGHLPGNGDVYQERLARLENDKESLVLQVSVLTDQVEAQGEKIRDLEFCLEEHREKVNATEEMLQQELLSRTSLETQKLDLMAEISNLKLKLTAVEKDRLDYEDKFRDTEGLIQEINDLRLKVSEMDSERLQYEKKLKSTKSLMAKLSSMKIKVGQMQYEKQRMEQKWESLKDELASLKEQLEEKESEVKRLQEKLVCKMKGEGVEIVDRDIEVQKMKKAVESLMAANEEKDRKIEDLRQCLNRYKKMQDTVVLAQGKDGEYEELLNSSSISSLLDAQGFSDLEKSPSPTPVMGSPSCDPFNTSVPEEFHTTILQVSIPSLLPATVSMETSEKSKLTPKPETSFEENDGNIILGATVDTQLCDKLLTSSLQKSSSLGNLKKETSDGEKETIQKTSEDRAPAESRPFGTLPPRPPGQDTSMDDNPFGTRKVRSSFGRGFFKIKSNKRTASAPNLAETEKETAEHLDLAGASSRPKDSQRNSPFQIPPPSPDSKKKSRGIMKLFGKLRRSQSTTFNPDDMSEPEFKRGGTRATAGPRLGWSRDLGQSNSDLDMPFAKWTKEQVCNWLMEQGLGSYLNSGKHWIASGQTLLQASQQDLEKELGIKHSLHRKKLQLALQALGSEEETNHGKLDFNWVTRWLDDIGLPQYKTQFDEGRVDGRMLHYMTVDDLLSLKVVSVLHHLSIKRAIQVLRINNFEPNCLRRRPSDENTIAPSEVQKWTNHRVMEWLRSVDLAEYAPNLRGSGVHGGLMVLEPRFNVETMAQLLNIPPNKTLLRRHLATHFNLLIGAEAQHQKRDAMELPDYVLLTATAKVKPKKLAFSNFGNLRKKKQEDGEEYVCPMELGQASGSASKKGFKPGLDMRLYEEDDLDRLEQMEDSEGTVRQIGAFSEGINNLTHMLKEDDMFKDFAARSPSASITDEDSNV

In article PMC8523714:

B1: EFR3B-HA (protein, UniProt Q9Y2G0 1-817)
chain: MYGVCGCCGALRPRYKRLVDNIFPEDPEDGLVKTNMEKLTFYALSAPEKLDRIGAYLSERLIRDVGRHRYGYVCIAMEALDQLLMACHCQSINLFVESFLKMVAKLLESEKPNLQILGTNSFVKFANIEEDTPSYHRSYDFFVSRFSEMCHSSHDDLEIKTKIRMSGIKGLQGVVRKTVNDELQANIWDPQHMDKIVPSLLFNLQHVEEAESRSPSPLQAPEKEKESPAELAERCLRELLGRAAFGNIKNAIKPVLIHLDNHSLWEPKVFAIRCFKIIMYSIQPQHSHLVIQQLLGHLDANSRSAATVRAGIVEVLSEAAVIAATGSVGPTVLEMFNTLLRQLRLSIDYALTGSYDGAVSLGTKIIKEHEERMFQEAVIKTVGSFASTLPTYQRSEVILFIMSKVPRPSLHQAVDTGRTGENRNRLTQIMLLKSLLQVSTGFQCNNMMSALPSNFLDRLLSTALMEDAEIRLFVLEILISFIDRHGNRHKFSTISTLSDISVLKLKVDKCSRQDTVFMKKHSQQLYRHIYLSCKEETNVQKHYEALYGLLALISIELANEEVVVDLIRLVLAVQDVAQVNEENLPVYNRCALYALGAAYLNLISQLTTVPAFCQHIHEVIETRKKEAPYMLPEDVFVERPRLSQNLDGVVIELLFRQSKISEVLGGSGYNSDRLCLPYIPQLTDEDRLSKRRSIGETISLQVEVESRNSPEKEERVPAEEITYETLKKAIVDSVAVEEQERERRRQVVEKFQKAPFEEIAAHCGARASLLQSKLNQIFEITIRPPPSPSGTITAAYGQPQNHSIPVYEMKFPDLCVY
B2: SH3 and BAR domain-containing protein endophilin B2 (SH3GLB2) (protein, UniProt Q9NR46 1-395)
chain: MDFNMKKLASDAGIFFTRAVQFTEEKFGQAEKTELDAHFENLLARADSTKNWTEKILRQTEVLLQPNPSARVEEFLYEKLDRKVPSRVTNGELLAQYMADAASELGPTTPYGKTLIKVAEAEKQLGAAERDFIHTASISFLTPLRNFLEGDWKTISKERRLLQNRRLDLDACKARLKKAKAAEAKATTVPDFQETRPRNYILSASASALWNDEVDKAEQELRVAQTEFDRQAEVTRLLLEGISSTHVNHLRCLHEFVKSQTTYYAQCYRHMLDLQKQLGRFPGTFVGTTEPASPPLSSTSPTTAAATMPVVPSVASLAPPGEASLCLEEVAPPASGTRKARVLYDYEAADSSELALLADELITVYSLPGMDPDWLIGERGNKKGKVPVTYLELLS
B3: Phosphorylase B kinase regulatory subunit (PHKB) (protein, UniProt Q93100 1-1093)
chain: MAGAAGLTAEVSWKVLERRARTKRSGSVYEPLKSINLPRPDNETLWDKLDHYYRIVKSTLLLYQSPTTGLFPTKTCGGDQKAKIQDSLYCAAGAWALALAYRRIDDDKGRTHELEHSAIKCMRGILYCYMRQADKVQQFKQDPRPTTCLHSVFNVHTGDELLSYEEYGHLQINAVSLYLLYLVEMISSGLQIIYNTDEVSFIQNLVFCVERVYRVPDFGVWERGSKYNNGSTELHSSSVGLAKAALEAINGFNLFGNQGCSWSVIFVDLDAHNRNRQTLCSLLPRESRSHNTDAALLPCISYPAFALDDEVLFSQTLDKVVRKLKGKYGFKRFLRDGYRTSLEDPNRCYYKPAEIKLFDGIECEFPIFFLYMMIDGVFRGNPKQVQEYQDLLTPVLHHTTEGYPVVPKYYYVPADFVEYEKNNPGSQKRFPSNCGRDGKLFLWGQALYIIAKLLADELISPKDIDPVQRYVPLKDQRNVSMRFSNQGPLENDLVVHVALIAESQRLQVFLNTYGIQTQTPQQVEPIQIWPQQELVKAYLQLGINEKLGLSGRPDRPIGCLGTSKIYRILGKTVVCYPIIFDLSDFYMSQDVFLLIDDIKNALQFIKQYWKMHGRPLFLVLIREDNIRGSRFNPILDMLAALKKGIIGGVKVHVDRLQTLISGAVVEQLDFLRISDTEELPEFKSFEELEPPKHSKVKRQSSTPSAPELGQQPDVNISEWKDKPTHEILQKLNDCSCLASQAILLGILLKREGPNFITKEGTVSDHIERVYRRAGSQKLWLAVRYGAAFTQKFSSSIAPHITTFLVHGKQVTLGAFGHEEEVISNPLSPRVIQNIIYYKCNTHDEREAVIQQELVIHIGWIISNNPELFSGMLKIRIGWIIHAMEYELQIRGGDKPALDLYQLSPSEVKQLLLDILQPQQNGRCWLNRRQIDGSLNRTPTGFYDRVWQILERTPNGIIVAGKHLPQQPTLSDMTMYEMNFSLLVEDTLGNIDQPQYRQIVVELLMVVSIVLERNPELEFQDKVDLDRLVKEAFNEFQKDQSRLKEIEKQDDMTSFYNTPPLGKRGTCSYLTKAVMNLLLEGEVKPNNDDPCLIS
B4: EFR3B (endogenous) (protein, UniProt Q9Y2G0 1-817)
chain: MYGVCGCCGALRPRYKRLVDNIFPEDPEDGLVKTNMEKLTFYALSAPEKLDRIGAYLSERLIRDVGRHRYGYVCIAMEALDQLLMACHCQSINLFVESFLKMVAKLLESEKPNLQILGTNSFVKFANIEEDTPSYHRSYDFFVSRFSEMCHSSHDDLEIKTKIRMSGIKGLQGVVRKTVNDELQANIWDPQHMDKIVPSLLFNLQHVEEAESRSPSPLQAPEKEKESPAELAERCLRELLGRAAFGNIKNAIKPVLIHLDNHSLWEPKVFAIRCFKIIMYSIQPQHSHLVIQQLLGHLDANSRSAATVRAGIVEVLSEAAVIAATGSVGPTVLEMFNTLLRQLRLSIDYALTGSYDGAVSLGTKIIKEHEERMFQEAVIKTVGSFASTLPTYQRSEVILFIMSKVPRPSLHQAVDTGRTGENRNRLTQIMLLKSLLQVSTGFQCNNMMSALPSNFLDRLLSTALMEDAEIRLFVLEILISFIDRHGNRHKFSTISTLSDISVLKLKVDKCSRQDTVFMKKHSQQLYRHIYLSCKEETNVQKHYEALYGLLALISIELANEEVVVDLIRLVLAVQDVAQVNEENLPVYNRCALYALGAAYLNLISQLTTVPAFCQHIHEVIETRKKEAPYMLPEDVFVERPRLSQNLDGVVIELLFRQSKISEVLGGSGYNSDRLCLPYIPQLTDEDRLSKRRSIGETISLQVEVESRNSPEKEERVPAEEITYETLKKAIVDSVAVEEQERERRRQVVEKFQKAPFEEIAAHCGARASLLQSKLNQIFEITIRPPPSPSGTITAAYGQPQNHSIPVYEMKFPDLCVY

Target: MYC-BirA*-CNAβ1 (human) (UniProt Q5F2F8)
Assay: proximity labelling; BioID in HeLa cells: MYC-BirA*-CNAβ1 with HA-PI4KA and the EFR3B/TTC7B/FAM126A plasmid, 50 μM biotin for 16 h; streptavidin capture from RIPA lysate, immunoblot

binding, binds:
FLAG-FAM126A^WT (from UniProt Q9BYI3 1-521), HA-PI4KA (from UniProt P42356 1-2102), B1

Target: FLAG-CNAβ1 (human) (UniProt Q5F2F8)
Assay: affinity purification with mass spectrometry; FLAG-tagged CNAβ baits from HEK293 Flp-In T-REx lysates on anti-FLAG M2 magnetic beads, 2 h at 4 °C; label-free quantitative MS, SAINTexpress against FLAG-GFP controls, BFDR ≤ 1%

binding, binds:
Baculoviral IAP repeat-containing protein 6 (BIRC6/BRUCE) (from UniProt Q9NR09 1-4857), FAM126A (Hyccin) (endogenous) (from UniProt Q9BYI3 1-521), Liprin-Beta 1 (PPFIBP1) (from UniProt Q86W92 1-1011), PI4KA (PI4KIIIα) (endogenous) (from UniProt P42356 1-2102), B2, B3, B4

No constants are given. Whether binding was seen depends on the method and setting. In cells and extracts the contact can be indirect. A yes stands for co-enrichment or nearness to the bait. Other partners may have been found. For some of these results: Sequences can lack the tags named with a protein.
